One molecule from patent US6822070 can be followed below.

By UniProt entry, the sequences of proteins in these tests, tags left out. Where a name states a change or a piece, a line headed by the entry shows the natural chain unless it says otherwise.
UniProt P0A7C2: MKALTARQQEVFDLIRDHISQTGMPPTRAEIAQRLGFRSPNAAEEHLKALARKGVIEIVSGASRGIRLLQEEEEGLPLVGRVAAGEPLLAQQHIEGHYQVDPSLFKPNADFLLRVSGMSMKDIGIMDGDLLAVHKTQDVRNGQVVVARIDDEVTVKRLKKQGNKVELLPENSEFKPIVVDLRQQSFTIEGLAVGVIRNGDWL
UniProt P27512: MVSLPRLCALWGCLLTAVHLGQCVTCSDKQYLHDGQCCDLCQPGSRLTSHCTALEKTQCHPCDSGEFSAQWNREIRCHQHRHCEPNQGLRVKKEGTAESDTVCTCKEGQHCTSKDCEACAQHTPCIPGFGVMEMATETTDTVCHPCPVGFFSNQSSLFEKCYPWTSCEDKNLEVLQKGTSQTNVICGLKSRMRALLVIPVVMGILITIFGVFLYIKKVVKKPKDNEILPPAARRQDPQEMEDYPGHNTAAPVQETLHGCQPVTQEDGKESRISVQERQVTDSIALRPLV

Results are given in words; binding and its absence hold for the method and conditions named. Some results given as binding are weak or reduced against the parent protein; the word gives no strength. Sequences can lack the tags named with a protein.

The target in the test is LexA fusion protein containing the cytoplasmic tail of the mouse CD40 receptor (from residue 219 to the COOH-terminus) (mouse) (UniProt P0A7C2+P27512). Put plainly: yeast two-hybrid, quantitative β-galactosidase expression.

B1: full TRAF domain of CRAF1 (residues 356 to 562) as transcriptional activation domain fusion in yeast (protein, not shown: large carriers)
chain: LQNRVTELESVDKSAGQAARNTGLLESQLSRHDQTLSVHDIRLADMDLRFQVLETASYNGVLIWKIRDYKRRKQEAVMGKTLSLYSQPFYTGYFGYKMCARVYLNGDGMGKGTHLSLFFVIMRGEYDALLPWPFKQKVTLMLMDQGSSRRHLGDAFKPDPNSSSFKKPTGEMNIASGCPVFVAQTVLENGTYIKDDTIFIKVIVDTS
On to B1, for which the binding entry is “binds”.
